Results taken from the supplement of paper PMC12024529.
Where a name gives a salt, the structure may show the parent alone. Some of the results follow. Baselines shift from plate to plate; read single values as rough.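 Wild-type or misfolding-prone missense mutant B-domain-deleted factor VIII, fused to Gaussia luciferase, is stably expressed in HEK293 lines. Each score is (mean triplicate-well luminescence minus DMSO mean) divided by DMSO standard deviation. Hits score at least 2; lower scores could stem from decreased secretion or poorer cell viability.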

tested on: HEK293 p.N1941S BDD-FVIII-Gluc; assay: secreted FVIII-Gluc luciferase Z-score vs DMSO control; higher = more FVIII-Gluc secretion; settings: 5 µM; 24 h

**Q.** How did the “secreted FVIII-Gluc luciferase Z-score” value turn out when `COc1ccc2[nH]c([S@@+]([O-])Cc3ncc(C)c(OC)c3C)nc2c1` [Esomeprazole magnesium (Nexium)] was run?
**A.** Its value is inactive: -2.47.

**Q.** Which “secreted FVIII-Gluc luciferase Z-score” value does the source give for `C[C@]12C=CC(=O)N[C@@H]1CC[C@@H]1[C@@H]2CC[C@]2(C)[C@@H](C(=O)Nc3cc(C(F)(F)F)ccc3C(F)(F)F)CC[C@@H]12` [Dutasteride] here?
**A.** Its value is inactive: 0.866.

**Q.** `C[C@@H](NCCCc1cccc(C(F)(F)F)c1)c1cccc2ccccc12` [AMG-073 HCl (Cinacalcet hydrochloride)] was tested. Which “secreted FVIII-Gluc luciferase Z-score” value did it give?
**A.** The value was inactive: 0.691.

**Q.** How did the “secreted FVIII-Gluc luciferase Z-score” value turn out when `CCOC(=O)c1c(C)n(C)c2ccc(O)cc12` [Mecarbinate] was run?
**A.** Its value is inactive: 0.561.

**Q.** For `CC(=O)O[C@]1(C(C)=O)CC[C@H]2[C@@H]3C[C@H](C)C4=CC(=O)CC[C@]4(C)[C@H]3CC[C@@]21C` [Medroxyprogesterone acetate], which “secreted FVIII-Gluc luciferase Z-score” value is on record?
**A.** The value was inactive: 0.32.

**Q.** `Cc1cc(=O)n(-c2ccccc2)n1C` [Antipyrine] was tested. Which “secreted FVIII-Gluc luciferase Z-score” value did it give?
**A.** Its value is inactive: -0.0393.

**Q.** `Cc1ccc(-c2cc(C(F)(F)F)nn2-c2ccc(S(N)(=O)=O)cc2)cc1` [Celecoxib] was tested. Which “secreted FVIII-Gluc luciferase Z-score” value did it give?
**A.** The value was inactive: -1.96.

**Q.** Which “secreted FVIII-Gluc luciferase Z-score” value does the source give for `O=NN(CCCl)C(=O)NC1CCCCC1` [Lomustine (CeeNU)] here?
**A.** Its value is inactive: -0.586.

**Q.** For `CCc1ccc(CCOc2ccc(CC3SC(=O)NC3=O)cc2)nc1` (stereo not drawn) [Pioglitazone (Actos)], which “secreted FVIII-Gluc luciferase Z-score” value is on record?
**A.** Its value is inactive: -0.882.

**Q.** `CCOc1nc2cccc(C(=O)O)c2n1Cc1ccc(-c2ccccc2-c2nnn[nH]2)cc1` [Candesartan (Atacand)] was tested. Which “secreted FVIII-Gluc luciferase Z-score” value did it give?
**A.** The value was inactive: -0.519.

**Q.** How did the “secreted FVIII-Gluc luciferase Z-score” value turn out when `CO[C@H]1C[C@@H]2CC[C@@H](C)[C@@](O)(O2)C(=O)C(=O)N2CCCC[C@H]2C(=O)O[C@H]([C@H](C)C[C@@H]2CC[C@@H](OCCO)[C@H](OC)C2)CC(=O)[C@H](C)/C=C(\C)[C@@H](O)[C@@H](OC)C(=O)[C@H](C)C[C@H](C)/C=C/C=C/C=C/1C` [Everolimus (RAD001)] was run?
**A.** Its value is inactive: -5.39.

**Q.** How did the “secreted FVIII-Gluc luciferase Z-score” value turn out when `O=C(c1ccc(OCCN2CCCCC2)cc1)c1c(-c2ccc(O)cc2)sc2cc(O)ccc12` [Evista (Raloxifene Hydrochloride)] was run?
**A.** Its value is inactive: 1.52.

**Q.** Which “secreted FVIII-Gluc luciferase Z-score” value does the source give for `COc1cc(/C=C/C(=O)CC(=O)/C=C/c2ccc(O)c(OC)c2)ccc1O` [Curcumin] here?
**A.** The value was inactive: -0.641.

**Q.** `NC(CO)C(=O)NNCc1ccc(O)c(O)c1O` (stereo not drawn) [Benserazide] was tested. Which “secreted FVIII-Gluc luciferase Z-score” value did it give?
**A.** The value was inactive: -0.831.

**Q.** Which “secreted FVIII-Gluc luciferase Z-score” value does the source give for `O=C(O)c1cc(/N=N/c2ccc(O)c(C(=O)O)c2)ccc1O` [olsalazine sodium] here?
**A.** The value was inactive: -0.014.

**Q.** How did the “secreted FVIII-Gluc luciferase Z-score” value turn out when `NS(=O)(=O)c1cc2c(cc1Cl)NC(C(Cl)Cl)NS2(=O)=O` (stereo not drawn) [Trichlormethiazide (Achletin)] was run?
**A.** The value was inactive: 1.32.

**Q.** `O=C(Nc1ccccc1)c1ccccc1O` [Salicylanilide] was tested. Which “secreted FVIII-Gluc luciferase Z-score” value did it give?
**A.** The value was inactive: 0.59.

**Q.** For `COc1ccc(/C=C/C(=O)Nc2ccccc2C(=O)O)cc1OC`, which “secreted FVIII-Gluc luciferase Z-score” value is on record?
**A.** The value was inactive: 0.0892.

**Q.** `CC(C)[C@H](N)C(=O)OCCOCn1cnc2c(=O)nc(N)[nH]c21` [Valaciclovir HCl] was tested. Which “secreted FVIII-Gluc luciferase Z-score” value did it give?
**A.** The value was inactive: -1.36.

**Q.** How did the “secreted FVIII-Gluc luciferase Z-score” value turn out when `C[C@@H](CN1CC(=O)NC(=O)C1)N1CC(=O)NC(=O)C1` [Dexrazoxane Hydrochloride] was run?
**A.** The value was inactive: -1.51.

**Q.** How did the “secreted FVIII-Gluc luciferase Z-score” value turn out when `Nc1nc(F)nc2c1ncn2[C@@H]1O[C@H](CO)[C@@H](O)[C@@H]1O` [Fludarabine (Fludara)] was run?
**A.** The value was inactive: 0.414.

**Q.** How did the “secreted FVIII-Gluc luciferase Z-score” value turn out when `CCN(CC)CC#CCOC(=O)C(O)(c1ccccc1)C1CCCCC1` (stereo not drawn) [Oxybutynin (Ditropan)] was run?
**A.** The value was inactive: -0.706.

**Q.** For `CCOC(=O)c1c(CSc2ccccc2)n(C)c2cc(Br)c(O)c(CN(C)C)c12` [Arbidol HCl], which “secreted FVIII-Gluc luciferase Z-score” value is on record?
**A.** The value was inactive: -2.05.

**Q.** With `Cc1oncc1C(=O)Nc1ccc(C(F)(F)F)cc1` [Leflunomide] as the compound, how does the “secreted FVIII-Gluc luciferase Z-score” value read?
**A.** The value was inactive: 0.573.

**Q.** How did the “secreted FVIII-Gluc luciferase Z-score” value turn out when `CCOC(=O)[C@H](CCc1ccccc1)N[C@@H](C)C(=O)N1[C@H](C(=O)O)C[C@@H]2CCC[C@@H]21` [Ramipril (Altace)] was run?
**A.** Its value is inactive: 1.52.

**Q.** `CC(C)Cc1ccc(C(C)C(=O)O)cc1` (stereo not drawn) [Ibuprofen (Advil)] was tested. Which “secreted FVIII-Gluc luciferase Z-score” value did it give?
**A.** The value was inactive: 0.342.

**Q.** For `CCN(Cc1ccncc1)C(=O)C(CO)c1ccccc1` (stereo not drawn) [Tropicamide], which “secreted FVIII-Gluc luciferase Z-score” value is on record?
**A.** The value was inactive: -1.68.

**Q.** How did the “secreted FVIII-Gluc luciferase Z-score” value turn out when `CNCCc1ccccn1` [Betahistine 2HCl] was run?
**A.** The value was inactive: 1.39.

**Q.** `Nc1ccc(S(=O)(=O)Nc2nccs2)cc1` [Sulfathiazole] was tested. Which “secreted FVIII-Gluc luciferase Z-score” value did it give?
**A.** The value was inactive: 0.671.

**Q.** How did the “secreted FVIII-Gluc luciferase Z-score” value turn out when `Cc1cc(C(C)(C)C)cc(C)c1CC1=NCCN1` [Xylometazoline HCl] was run?
**A.** The value was inactive: 0.509.

**Q.** For `COCCc1ccc(OCC(O)CNC(C)C)cc1` (stereo not drawn) [Metoprolol tartrate], which “secreted FVIII-Gluc luciferase Z-score” value is on record?
**A.** The value was inactive: -0.114.

**Q.** With `Cc1ncc([N+](=O)[O-])n1CC(C)O` (stereo not drawn) [Secnidazole (Flagentyl)] as the compound, how does the “secreted FVIII-Gluc luciferase Z-score” value read?
**A.** The value was inactive: -0.00233.

**Q.** How did the “secreted FVIII-Gluc luciferase Z-score” value turn out when `O=c1cc[nH]c(=S)[nH]1` [2-Thiouracil] was run?
**A.** Its value is inactive: 0.0535.

**Q.** `Nc1ccn([C@@H]2CS[C@H](CO)O2)c(=O)n1` [Lamivudine (Epivir)] was tested. Which “secreted FVIII-Gluc luciferase Z-score” value did it give?
**A.** Its value is inactive: 1.59.

**Q.** For `CC(C)/N=c1\cc2n(-c3ccc(Cl)cc3)c3ccccc3nc-2cc1Nc1ccc(Cl)cc1` [Clofazimine], which “secreted FVIII-Gluc luciferase Z-score” value is on record?
**A.** The value was inactive: -1.97.

**Q.** How did the “secreted FVIII-Gluc luciferase Z-score” value turn out when `Cc1cc(=O)[nH]c(=S)[nH]1` [Methylthiouracil] was run?
**A.** Its value is inactive: -0.411.

**Q.** Which “secreted FVIII-Gluc luciferase Z-score” value does the source give for `Oc1ccc(/C=C/c2cc(O)cc(O)c2)cc1` [Resveratrol] here?
**A.** Its value is inactive: -0.333.

**Q.** Which “secreted FVIII-Gluc luciferase Z-score” value does the source give for `CC(C(=O)O)c1ccc(C(=O)c2cccs2)cc1` (stereo not drawn) [Suprofen (Profenal)] here?
**A.** The value was inactive: -1.02.
